The source of these data is the supplement of paper PMC10849652.

Chains of the proteins cited; added tags and fusions are not shown. Lines headed by an entry give the natural chain unless they say otherwise; changes in a name come on top.
UniProt Q9Y5P6: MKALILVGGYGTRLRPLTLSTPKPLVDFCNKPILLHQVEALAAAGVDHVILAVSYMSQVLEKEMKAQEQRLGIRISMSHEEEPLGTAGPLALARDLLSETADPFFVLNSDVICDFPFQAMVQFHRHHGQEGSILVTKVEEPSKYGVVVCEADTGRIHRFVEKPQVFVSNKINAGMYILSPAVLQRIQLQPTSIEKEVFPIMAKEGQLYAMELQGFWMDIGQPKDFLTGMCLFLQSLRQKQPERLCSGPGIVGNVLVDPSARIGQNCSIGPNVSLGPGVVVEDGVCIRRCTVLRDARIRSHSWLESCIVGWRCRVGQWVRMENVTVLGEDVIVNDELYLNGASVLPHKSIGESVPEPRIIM
UniProt P32189: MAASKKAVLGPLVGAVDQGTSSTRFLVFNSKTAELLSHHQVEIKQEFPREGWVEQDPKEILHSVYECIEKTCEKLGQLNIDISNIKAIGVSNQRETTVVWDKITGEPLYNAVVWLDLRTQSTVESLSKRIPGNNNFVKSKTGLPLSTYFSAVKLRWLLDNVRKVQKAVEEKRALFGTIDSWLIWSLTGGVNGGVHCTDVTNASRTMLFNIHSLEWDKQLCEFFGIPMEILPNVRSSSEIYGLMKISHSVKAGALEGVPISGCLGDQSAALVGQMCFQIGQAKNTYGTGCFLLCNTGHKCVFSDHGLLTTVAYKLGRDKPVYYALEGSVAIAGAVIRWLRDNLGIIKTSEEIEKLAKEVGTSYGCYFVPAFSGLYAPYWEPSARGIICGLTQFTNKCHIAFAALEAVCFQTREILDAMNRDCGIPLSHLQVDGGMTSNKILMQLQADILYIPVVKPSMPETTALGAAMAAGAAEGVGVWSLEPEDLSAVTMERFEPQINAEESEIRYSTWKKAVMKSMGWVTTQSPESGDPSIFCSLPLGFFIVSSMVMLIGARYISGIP
UniProt P28799: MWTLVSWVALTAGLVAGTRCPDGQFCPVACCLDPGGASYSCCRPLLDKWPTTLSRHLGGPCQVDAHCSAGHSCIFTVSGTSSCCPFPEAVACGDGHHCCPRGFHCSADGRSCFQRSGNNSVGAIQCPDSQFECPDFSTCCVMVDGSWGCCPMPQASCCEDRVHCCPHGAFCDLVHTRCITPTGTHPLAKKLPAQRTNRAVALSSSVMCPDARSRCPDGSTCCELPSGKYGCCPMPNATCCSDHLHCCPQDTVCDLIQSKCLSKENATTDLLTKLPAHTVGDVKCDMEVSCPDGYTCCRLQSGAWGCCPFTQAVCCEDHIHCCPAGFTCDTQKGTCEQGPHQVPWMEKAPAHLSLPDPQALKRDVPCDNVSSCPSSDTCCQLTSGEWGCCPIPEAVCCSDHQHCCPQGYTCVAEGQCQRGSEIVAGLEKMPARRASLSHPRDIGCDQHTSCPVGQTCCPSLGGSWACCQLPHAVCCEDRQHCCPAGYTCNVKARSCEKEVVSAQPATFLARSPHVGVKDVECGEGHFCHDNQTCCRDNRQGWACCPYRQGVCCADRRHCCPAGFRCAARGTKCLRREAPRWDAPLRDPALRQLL
UniProt Q9BRT9, whole entry, looked up: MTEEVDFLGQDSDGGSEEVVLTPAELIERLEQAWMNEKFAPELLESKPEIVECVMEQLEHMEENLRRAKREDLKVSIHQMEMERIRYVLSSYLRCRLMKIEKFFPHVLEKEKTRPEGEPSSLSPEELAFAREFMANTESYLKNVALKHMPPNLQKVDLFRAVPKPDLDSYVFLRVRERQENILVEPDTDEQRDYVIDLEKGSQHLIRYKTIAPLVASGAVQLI
UniProt O75791: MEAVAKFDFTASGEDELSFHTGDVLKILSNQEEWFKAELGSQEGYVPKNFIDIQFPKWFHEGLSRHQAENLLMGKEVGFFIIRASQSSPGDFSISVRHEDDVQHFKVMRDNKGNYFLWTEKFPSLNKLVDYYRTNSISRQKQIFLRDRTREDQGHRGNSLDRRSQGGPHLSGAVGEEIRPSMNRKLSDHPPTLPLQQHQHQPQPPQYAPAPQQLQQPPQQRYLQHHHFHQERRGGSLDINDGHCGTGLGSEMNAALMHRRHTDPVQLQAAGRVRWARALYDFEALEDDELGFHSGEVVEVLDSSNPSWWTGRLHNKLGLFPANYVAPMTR
UniProt Q8N335: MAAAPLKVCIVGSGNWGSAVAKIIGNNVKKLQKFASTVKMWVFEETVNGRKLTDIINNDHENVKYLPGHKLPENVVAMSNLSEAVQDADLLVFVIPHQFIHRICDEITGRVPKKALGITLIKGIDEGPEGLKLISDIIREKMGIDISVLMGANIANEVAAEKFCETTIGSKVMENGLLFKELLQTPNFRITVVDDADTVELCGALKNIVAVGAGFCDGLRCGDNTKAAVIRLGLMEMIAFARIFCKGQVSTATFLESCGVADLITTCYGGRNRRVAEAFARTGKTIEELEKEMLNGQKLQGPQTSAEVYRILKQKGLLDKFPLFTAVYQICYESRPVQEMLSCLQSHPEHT
UniProt Q14344, whole entry, looked up: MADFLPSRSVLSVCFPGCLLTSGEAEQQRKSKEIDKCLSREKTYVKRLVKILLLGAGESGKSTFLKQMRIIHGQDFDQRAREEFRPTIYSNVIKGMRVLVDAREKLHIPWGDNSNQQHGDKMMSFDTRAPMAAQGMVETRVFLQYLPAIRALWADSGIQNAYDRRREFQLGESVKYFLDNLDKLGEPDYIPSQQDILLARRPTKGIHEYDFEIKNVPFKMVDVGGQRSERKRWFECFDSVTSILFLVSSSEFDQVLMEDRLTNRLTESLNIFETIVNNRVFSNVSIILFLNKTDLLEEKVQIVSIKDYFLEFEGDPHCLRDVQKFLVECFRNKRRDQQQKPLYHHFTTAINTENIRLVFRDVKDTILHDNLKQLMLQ
UniProt O95249: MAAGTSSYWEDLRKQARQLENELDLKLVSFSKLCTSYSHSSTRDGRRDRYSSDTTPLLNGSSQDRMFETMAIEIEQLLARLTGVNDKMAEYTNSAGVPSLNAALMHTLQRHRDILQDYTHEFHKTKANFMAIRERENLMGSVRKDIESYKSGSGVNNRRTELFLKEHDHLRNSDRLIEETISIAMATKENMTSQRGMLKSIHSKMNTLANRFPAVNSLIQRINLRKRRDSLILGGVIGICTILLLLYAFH
UniProt Q8IXQ4: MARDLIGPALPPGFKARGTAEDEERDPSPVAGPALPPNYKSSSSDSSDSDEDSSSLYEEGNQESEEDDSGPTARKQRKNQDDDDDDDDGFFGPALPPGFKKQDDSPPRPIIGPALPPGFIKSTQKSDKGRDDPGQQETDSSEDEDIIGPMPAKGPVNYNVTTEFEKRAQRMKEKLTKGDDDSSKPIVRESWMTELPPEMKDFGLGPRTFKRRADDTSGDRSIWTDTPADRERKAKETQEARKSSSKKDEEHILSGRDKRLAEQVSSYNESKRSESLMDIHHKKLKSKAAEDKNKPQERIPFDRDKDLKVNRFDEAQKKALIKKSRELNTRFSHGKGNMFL
UniProt Q9P2T1: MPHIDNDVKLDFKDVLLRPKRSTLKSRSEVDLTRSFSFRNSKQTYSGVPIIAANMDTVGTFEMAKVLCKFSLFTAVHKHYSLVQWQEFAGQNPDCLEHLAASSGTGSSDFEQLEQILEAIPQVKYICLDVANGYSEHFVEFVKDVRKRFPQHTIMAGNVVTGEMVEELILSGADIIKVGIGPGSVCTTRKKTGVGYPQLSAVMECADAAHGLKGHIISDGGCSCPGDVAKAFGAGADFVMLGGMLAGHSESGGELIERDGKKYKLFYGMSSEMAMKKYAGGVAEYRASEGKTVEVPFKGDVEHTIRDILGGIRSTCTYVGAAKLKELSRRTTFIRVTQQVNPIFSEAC
UniProt Q9Y223: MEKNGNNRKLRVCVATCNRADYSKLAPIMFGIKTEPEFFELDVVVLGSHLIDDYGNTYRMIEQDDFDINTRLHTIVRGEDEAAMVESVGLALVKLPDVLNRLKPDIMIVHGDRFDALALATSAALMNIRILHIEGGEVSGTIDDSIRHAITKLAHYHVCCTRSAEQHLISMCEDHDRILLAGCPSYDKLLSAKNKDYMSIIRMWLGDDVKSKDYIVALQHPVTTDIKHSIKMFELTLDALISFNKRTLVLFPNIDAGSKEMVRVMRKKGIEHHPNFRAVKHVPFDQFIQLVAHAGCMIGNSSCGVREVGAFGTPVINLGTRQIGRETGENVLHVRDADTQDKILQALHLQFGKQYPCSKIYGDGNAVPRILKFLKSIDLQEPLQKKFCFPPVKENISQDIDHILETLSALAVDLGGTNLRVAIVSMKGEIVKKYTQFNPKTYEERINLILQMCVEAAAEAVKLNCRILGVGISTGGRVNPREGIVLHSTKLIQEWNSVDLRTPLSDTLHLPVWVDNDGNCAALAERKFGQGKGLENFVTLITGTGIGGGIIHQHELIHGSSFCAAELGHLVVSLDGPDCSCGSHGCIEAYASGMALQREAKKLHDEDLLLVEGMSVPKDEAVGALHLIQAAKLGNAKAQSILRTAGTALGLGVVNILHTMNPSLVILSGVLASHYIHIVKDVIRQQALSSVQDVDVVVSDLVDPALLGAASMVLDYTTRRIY
UniProt O43292: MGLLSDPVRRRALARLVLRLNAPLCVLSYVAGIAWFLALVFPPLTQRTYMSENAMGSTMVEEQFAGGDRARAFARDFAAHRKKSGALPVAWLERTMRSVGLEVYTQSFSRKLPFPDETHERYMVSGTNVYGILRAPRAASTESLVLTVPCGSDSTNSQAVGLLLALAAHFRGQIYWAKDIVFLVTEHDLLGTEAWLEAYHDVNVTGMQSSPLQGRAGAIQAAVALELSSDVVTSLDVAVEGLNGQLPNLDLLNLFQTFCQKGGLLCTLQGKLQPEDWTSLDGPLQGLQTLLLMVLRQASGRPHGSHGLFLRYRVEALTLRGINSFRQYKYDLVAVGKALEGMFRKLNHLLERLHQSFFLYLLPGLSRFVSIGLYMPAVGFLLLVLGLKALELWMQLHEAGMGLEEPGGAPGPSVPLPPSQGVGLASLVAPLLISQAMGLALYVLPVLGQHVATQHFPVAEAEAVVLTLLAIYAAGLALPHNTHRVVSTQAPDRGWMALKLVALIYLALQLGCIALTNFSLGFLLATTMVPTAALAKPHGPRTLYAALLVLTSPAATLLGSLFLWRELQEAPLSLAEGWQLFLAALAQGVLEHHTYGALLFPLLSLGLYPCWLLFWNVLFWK
UniProt Q5VW38: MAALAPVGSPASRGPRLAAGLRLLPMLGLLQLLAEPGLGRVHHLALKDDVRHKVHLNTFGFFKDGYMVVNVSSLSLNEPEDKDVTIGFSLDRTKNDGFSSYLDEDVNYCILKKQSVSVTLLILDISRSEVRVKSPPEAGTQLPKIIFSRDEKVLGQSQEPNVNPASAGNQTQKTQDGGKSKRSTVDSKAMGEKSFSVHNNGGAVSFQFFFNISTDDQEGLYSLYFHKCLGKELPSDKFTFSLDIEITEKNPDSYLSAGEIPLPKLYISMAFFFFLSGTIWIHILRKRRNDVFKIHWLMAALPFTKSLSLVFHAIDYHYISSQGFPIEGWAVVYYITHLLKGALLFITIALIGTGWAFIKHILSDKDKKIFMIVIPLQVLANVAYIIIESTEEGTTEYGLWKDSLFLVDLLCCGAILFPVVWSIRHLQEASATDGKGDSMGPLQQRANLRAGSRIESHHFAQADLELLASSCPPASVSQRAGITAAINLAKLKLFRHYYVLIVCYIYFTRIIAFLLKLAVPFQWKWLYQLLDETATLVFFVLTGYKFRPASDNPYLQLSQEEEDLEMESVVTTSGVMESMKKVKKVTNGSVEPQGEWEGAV
UniProt O00461: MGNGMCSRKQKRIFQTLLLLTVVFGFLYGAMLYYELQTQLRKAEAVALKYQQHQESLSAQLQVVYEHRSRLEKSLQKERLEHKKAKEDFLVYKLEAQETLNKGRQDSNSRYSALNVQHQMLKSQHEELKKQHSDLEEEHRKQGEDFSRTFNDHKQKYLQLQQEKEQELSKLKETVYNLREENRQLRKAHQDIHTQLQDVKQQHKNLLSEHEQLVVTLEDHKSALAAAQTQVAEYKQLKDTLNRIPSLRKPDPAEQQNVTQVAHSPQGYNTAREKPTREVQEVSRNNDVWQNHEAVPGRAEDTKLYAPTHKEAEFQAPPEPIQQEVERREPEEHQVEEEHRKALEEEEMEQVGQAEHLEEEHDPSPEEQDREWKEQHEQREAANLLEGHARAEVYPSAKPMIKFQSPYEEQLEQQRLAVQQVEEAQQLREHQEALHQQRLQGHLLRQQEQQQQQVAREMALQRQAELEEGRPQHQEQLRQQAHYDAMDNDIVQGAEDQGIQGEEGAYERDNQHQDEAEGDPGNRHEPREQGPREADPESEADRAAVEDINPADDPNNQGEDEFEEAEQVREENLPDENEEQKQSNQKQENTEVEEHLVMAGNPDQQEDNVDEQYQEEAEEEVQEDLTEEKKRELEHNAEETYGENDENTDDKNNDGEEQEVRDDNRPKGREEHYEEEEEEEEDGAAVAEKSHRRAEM
UniProt Q9Y3E0: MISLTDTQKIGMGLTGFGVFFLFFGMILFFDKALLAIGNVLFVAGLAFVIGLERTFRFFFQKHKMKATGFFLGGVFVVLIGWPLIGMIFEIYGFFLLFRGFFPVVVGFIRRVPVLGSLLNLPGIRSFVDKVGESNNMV

Some of the results follow.

Compound in this experiment: C[C@@H](Oc1cc(-c2cnn(C3CCNCC3)c2)cnc1N)c1c(Cl)ccc(F)c1Cl [crizotinib]
Briefly: log2 fold change, soluble protein after heating vs DMSO (PISA); higher = thermal stabilisation; K562 cells, 10 uM, 30 min; active = over 0.2 and 3.5 SD of the protein, either way, in both replicates (recomputed). A digest of the protocol:
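K562 cells (2×10^6 cells/mL) were treated with 10 μM compound for 30 min, and aliquots were heated for 3 min over 48°C-58°C. Pooled aliquots were extracted in PBS with 0.5% NP-40 at 4°C, and the supernatant after 21,000xg for 90 min was measured by TMTpro 16plex LC-MS/MS with channel sums equalised. Reported thermal stability, relative to control samples and from duplicates, is a log2 fold change.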
Regarding GMPPB isoform 2 (UniProt Q9Y5P6), the log2 fold change is inactive: 0.005.
For the target GK (UniProt P32189), the log2 fold change is inactive: 0.067.
As for GRN (UniProt P28799), the figure is inactive: 0.051; as for GRB2 (UniProt P62993), inactive: 0.042.
For GINS4 (UniProt Q9BRT9), the log2 fold change was inactive: 0.014.
With GRAP2 (UniProt O75791), the log2 fold change was inactive: -0.042.
As for GPD1L (UniProt Q8N335), the log2 fold change was inactive: 0.099.
In the case of GNA13 (UniProt Q14344), the log2 fold change was inactive: 0.118.
For the target GOSR1 (UniProt O95249), the log2 fold change was inactive: -0.136.
Turning to GPATCH8 (UniProt Q9UKJ3), the log2 fold change was inactive: -0.051.
For the target GPALPP1 (UniProt Q8IXQ4), the log2 fold change was inactive: 0.029.
Take GPD2 (UniProt P43304): the log2 fold change is inactive: 0.062.
For the target GPRIN1 (UniProt Q7Z2K8), the log2 fold change was inactive: 0.079.
Next, GPN3 isoform 2 (UniProt Q9UHW5): inactive: 0.01; GNPDA2 (UniProt Q8TDQ7): inactive: 0.036.
On to GMPR2 isoform 2 (UniProt Q9P2T1), for which the log2 fold change is inactive: 0.084.
As for GNE isoform 2 (UniProt Q9Y223), the figure is inactive: -0.145; as for GPAA1 (UniProt O43292), inactive: -0.026.
For the target GPR107 (UniProt Q5VW38), the log2 fold change was inactive: 0.041.
Turning to GORASP2 isoform 3 (UniProt Q9H8Y8), the log2 fold change is inactive: 0.029.
Turning to GOLIM4 (UniProt O00461), the log2 fold change is inactive: -0.111.
With GPN1 isoform 5 (UniProt Q9HCN4), the log2 fold change is inactive: 0.05.
As to GOLT1B (UniProt Q9Y3E0), the log2 fold change was inactive: 0.003.
